Experimental data as given in patent US8785384B2 (Chemical & Biopharmaceutical Laboratories of Patras, priority 2010, dated 2014).

Experiment: general procedure: Fmoc solid-phase peptide synthesis; 2-chlorotrityl chloride (CTC) resin or 4-methylbenzhydryl (MBH) resin
Conditions: late stage modification step, trifluoroacetic acid salt

In the case of “RLX1B (B-chain SEQ ID NO: 3) (KWKDDVIKLCGRELVRAQIAICGMSTWS; listed as Homo sapiens)”, the step yield is reported as 62%.
